In the supplement of paper PMC10849652:
Some of the results follow.

By UniProt entry, the sequences of proteins in these tests, tags left out. Where a name states a change or a piece, a line headed by the entry shows the natural chain unless it says otherwise.
UniProt P13807: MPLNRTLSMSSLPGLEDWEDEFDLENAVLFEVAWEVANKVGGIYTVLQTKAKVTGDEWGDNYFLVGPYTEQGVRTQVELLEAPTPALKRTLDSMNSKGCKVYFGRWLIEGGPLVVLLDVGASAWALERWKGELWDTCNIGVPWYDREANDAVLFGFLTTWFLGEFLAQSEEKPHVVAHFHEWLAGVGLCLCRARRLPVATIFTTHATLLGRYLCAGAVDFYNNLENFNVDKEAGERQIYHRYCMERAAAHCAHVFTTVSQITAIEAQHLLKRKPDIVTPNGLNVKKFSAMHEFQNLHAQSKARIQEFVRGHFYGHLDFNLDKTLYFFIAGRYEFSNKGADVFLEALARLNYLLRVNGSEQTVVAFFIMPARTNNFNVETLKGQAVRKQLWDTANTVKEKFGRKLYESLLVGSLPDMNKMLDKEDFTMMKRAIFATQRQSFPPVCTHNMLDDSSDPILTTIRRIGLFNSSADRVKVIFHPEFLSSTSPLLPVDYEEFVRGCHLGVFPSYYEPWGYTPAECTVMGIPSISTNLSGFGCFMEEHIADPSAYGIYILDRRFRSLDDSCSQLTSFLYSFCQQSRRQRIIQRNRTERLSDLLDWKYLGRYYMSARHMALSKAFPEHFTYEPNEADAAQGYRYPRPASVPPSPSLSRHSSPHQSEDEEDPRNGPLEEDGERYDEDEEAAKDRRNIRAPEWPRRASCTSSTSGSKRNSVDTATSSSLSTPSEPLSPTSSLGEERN
UniProt P52657, whole entry, looked up: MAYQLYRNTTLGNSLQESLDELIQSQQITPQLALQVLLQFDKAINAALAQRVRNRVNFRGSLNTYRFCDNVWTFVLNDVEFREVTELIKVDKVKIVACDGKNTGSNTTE
UniProt P02008: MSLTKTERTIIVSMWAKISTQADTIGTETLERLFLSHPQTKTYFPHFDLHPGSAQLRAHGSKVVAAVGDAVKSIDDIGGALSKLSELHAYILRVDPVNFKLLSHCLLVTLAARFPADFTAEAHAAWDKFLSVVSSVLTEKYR
UniProt P69905, whole entry, looked up: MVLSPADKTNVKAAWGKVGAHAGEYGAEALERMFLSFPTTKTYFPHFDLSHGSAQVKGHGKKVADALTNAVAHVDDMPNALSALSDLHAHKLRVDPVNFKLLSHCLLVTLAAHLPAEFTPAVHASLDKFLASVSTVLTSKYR
UniProt Q7Z4H3: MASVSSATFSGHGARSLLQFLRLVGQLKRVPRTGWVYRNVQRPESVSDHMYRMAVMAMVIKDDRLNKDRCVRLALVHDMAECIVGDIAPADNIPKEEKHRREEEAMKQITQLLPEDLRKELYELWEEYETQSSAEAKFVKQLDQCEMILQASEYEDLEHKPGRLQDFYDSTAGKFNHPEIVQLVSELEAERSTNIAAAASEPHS
UniProt Q9ULT8: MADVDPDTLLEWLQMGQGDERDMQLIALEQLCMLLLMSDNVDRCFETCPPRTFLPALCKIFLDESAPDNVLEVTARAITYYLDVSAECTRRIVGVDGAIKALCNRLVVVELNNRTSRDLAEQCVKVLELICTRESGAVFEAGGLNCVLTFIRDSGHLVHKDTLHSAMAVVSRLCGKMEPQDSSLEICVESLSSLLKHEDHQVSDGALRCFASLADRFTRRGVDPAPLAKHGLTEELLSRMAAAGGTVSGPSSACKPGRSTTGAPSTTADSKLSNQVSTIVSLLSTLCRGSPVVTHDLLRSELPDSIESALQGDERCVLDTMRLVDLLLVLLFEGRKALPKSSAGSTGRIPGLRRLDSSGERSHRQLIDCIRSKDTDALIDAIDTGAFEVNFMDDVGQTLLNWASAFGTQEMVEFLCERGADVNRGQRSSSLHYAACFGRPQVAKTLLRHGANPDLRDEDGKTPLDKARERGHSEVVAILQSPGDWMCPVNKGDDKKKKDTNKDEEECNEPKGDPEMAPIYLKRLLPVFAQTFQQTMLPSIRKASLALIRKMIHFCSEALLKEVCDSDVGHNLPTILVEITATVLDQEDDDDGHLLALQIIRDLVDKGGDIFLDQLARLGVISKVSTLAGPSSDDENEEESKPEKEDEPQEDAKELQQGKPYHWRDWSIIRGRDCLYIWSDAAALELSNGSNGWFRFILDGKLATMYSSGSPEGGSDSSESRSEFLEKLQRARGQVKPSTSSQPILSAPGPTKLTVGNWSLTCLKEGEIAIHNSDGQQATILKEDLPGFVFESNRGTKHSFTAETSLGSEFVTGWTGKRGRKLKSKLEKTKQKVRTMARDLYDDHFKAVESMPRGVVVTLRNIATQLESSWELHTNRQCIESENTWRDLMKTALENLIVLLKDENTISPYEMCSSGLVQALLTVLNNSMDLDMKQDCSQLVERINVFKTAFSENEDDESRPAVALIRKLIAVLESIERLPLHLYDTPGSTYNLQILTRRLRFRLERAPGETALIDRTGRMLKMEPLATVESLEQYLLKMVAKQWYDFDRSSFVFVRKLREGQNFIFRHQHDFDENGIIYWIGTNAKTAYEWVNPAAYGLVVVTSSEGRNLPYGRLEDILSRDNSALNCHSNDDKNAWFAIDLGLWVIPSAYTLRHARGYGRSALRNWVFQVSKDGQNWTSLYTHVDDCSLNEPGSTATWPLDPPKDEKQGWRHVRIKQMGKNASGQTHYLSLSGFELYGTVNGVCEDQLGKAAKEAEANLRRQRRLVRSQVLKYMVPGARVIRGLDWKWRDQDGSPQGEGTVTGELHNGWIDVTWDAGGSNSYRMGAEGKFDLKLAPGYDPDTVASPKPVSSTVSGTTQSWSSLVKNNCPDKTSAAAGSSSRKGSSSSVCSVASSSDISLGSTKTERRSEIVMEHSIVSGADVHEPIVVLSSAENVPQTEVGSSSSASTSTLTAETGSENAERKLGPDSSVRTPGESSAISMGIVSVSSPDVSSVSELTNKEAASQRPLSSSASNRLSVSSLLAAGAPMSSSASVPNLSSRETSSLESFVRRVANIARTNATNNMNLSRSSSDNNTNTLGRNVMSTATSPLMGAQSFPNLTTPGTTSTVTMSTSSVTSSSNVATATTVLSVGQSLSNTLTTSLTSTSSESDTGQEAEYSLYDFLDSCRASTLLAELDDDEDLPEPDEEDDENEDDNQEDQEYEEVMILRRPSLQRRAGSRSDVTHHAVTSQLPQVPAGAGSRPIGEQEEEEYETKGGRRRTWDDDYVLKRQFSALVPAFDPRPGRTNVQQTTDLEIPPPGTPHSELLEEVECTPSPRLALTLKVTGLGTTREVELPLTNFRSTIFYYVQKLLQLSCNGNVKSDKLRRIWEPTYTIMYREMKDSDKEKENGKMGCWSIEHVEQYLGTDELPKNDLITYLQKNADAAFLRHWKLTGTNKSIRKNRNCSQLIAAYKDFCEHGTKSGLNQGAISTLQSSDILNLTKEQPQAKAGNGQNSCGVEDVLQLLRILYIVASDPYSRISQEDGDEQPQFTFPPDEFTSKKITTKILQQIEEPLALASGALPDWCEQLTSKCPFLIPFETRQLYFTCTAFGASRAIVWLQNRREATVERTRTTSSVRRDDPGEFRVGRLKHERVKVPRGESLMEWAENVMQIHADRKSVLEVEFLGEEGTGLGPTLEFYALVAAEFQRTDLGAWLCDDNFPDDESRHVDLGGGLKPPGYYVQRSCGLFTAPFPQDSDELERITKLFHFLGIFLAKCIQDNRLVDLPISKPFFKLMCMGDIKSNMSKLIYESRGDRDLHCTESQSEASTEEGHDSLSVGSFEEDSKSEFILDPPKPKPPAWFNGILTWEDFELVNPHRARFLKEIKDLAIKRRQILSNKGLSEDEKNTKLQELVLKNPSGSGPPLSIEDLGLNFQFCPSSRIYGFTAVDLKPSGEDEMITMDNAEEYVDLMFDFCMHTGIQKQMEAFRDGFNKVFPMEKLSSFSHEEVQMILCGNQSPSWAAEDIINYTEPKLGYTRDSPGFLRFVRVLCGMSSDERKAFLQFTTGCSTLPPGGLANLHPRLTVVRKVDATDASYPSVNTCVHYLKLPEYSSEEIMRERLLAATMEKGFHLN
UniProt Q03013: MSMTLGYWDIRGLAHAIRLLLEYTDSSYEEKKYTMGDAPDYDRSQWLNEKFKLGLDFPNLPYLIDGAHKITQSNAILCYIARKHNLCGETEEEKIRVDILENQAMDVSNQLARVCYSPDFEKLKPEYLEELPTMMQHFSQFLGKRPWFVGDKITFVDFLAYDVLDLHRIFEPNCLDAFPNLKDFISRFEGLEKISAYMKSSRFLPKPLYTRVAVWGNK
UniProt P06865: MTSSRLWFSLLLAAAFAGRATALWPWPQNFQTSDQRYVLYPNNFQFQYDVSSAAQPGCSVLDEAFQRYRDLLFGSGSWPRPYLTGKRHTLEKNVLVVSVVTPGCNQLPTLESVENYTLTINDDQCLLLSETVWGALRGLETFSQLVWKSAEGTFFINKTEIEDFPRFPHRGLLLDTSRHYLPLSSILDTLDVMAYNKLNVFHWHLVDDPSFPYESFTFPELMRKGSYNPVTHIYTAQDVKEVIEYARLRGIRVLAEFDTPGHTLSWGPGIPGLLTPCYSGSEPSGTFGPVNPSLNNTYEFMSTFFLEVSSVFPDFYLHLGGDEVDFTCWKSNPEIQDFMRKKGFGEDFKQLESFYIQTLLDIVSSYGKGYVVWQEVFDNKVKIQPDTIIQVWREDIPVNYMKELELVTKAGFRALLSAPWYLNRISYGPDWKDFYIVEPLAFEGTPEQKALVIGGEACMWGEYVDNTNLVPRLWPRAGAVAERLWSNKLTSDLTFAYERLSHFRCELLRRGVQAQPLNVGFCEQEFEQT
UniProt P0C0S5, whole entry, looked up: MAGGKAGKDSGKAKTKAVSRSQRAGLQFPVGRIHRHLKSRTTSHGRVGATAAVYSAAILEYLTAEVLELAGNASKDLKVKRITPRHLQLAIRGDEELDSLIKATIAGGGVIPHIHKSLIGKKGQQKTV
UniProt P00390: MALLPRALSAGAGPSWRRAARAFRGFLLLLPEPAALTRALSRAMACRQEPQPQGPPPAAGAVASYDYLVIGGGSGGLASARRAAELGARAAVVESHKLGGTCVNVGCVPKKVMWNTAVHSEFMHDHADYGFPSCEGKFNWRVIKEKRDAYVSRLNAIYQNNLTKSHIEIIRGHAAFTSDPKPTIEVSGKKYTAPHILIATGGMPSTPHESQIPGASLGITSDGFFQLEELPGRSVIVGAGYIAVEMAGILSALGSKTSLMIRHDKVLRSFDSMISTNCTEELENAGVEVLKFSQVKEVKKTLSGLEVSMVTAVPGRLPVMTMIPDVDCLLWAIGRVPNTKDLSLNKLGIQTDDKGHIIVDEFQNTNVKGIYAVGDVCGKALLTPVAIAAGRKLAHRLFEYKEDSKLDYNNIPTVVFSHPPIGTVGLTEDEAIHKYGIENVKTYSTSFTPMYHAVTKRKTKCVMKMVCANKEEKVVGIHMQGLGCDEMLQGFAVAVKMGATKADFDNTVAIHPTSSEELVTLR
UniProt O14929: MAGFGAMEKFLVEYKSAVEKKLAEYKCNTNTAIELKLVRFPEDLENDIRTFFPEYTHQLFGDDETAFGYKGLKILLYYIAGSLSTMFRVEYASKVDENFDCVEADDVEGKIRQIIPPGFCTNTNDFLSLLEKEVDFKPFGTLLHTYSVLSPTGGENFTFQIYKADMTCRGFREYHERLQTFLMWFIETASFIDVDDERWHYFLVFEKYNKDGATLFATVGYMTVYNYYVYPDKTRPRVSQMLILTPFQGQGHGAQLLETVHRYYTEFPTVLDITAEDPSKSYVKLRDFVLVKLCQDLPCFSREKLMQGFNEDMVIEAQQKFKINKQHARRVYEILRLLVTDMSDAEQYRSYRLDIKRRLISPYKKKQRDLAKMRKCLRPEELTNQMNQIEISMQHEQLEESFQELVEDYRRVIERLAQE
UniProt Q9Y5Q8: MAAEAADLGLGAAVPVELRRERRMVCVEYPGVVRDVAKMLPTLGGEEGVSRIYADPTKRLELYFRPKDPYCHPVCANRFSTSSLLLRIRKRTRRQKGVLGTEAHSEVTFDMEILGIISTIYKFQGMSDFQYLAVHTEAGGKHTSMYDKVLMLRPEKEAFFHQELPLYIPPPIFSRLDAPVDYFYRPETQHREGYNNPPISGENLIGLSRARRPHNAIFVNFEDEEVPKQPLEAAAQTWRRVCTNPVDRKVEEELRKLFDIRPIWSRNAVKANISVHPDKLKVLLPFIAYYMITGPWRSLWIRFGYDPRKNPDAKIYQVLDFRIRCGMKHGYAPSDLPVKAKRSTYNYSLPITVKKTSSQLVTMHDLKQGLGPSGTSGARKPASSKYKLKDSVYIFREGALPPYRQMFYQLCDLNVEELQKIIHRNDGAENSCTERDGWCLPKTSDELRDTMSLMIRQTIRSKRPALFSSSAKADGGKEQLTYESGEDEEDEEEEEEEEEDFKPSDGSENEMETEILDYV
UniProt Q92522: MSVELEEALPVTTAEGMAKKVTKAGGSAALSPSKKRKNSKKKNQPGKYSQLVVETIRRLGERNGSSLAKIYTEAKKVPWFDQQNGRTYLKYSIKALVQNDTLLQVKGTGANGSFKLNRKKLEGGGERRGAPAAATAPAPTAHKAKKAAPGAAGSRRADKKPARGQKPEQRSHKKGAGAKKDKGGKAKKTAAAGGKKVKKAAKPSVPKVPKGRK

compound: CNc1nc(-c2ccc3c(N)n[nH]c3c2)cc(N2C[C@@H](C(=O)NC3CCCCC3)CC[C@H]2C)n1; assay: log2 fold change, soluble protein after heating vs DMSO (PISA); higher = thermal stabilisation; K562 cells, 10 uM, 30 min; active = over 0.2 and 3.5 SD of the protein, either way, in both replicates (recomputed)
Procedure, shortened: (§1)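 Thermal stability values are relative to control samples and come from duplicates. They are expressed as log2 fold changes. For measurement, K562 cells (2×10^6 cells/mL) received 10 μM compound for 30 min, and aliquots were heated for 3 min over 48°C-58°C, pooled, and extracted at 4°C in PBS with 0.5% NP-40. Soluble protein, the supernatant after 21,000xg for 90 min, was quantified by TMTpro 16plex LC-MS/MS with equalised channel sums.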

Target	log2 fold change
GYS1 (UniProt P13807)	inactive: 0.193
HBQ1 (UniProt P09105)	inactive: 0.008
GTF2A2 (UniProt P52657)	inactive: -0.025
HBZ (UniProt P02008)	inactive: -0.006
GTF2A1 (UniProt P52655)	inactive: -0.003
HBA1 (UniProt P69905)	inactive: 0.011
GSTP1 (UniProt P09211)	inactive: 0.02
GTF2E2 (UniProt P29084)	inactive: 0.025
HEATR3 (UniProt Q7Z4Q2)	inactive: -0.006
GUF1 (UniProt Q8N442)	inactive: -0.144
GYG1 (UniProt P46976)	inactive: 0.038
GTF2H3 (UniProt Q13889)	inactive: -0.001
HAX1 (UniProt O00165)	inactive: 0.051
HDDC2 (UniProt Q7Z4H3)	inactive: 0.063
HDAC1 (UniProt Q13547)	inactive: 0.04
GUK1 isoform 2 (UniProt Q16774)	inactive: 0.026
GSK3B isoform 2 (UniProt P49841)	inactive: -0.019
HECTD1 (UniProt Q9ULT8)	inactive: -0.001
HAUS4 (UniProt Q9H6D7)	inactive: 0.044
HDAC2 (UniProt Q92769)	inactive: -0.015

Target	log2 fold change
GUSB (UniProt P08236)	inactive: -0.039
H2AFX (UniProt P16104)	inactive: 0.089
GSTO1 (UniProt P78417)	inactive: -0.004
HDAC6 (UniProt Q9UBN7)	inactive: 0.09
HADHB (UniProt P55084)	active: 0.62
GSTM4 (UniProt Q03013)	inactive: 0.06
HEXA (UniProt P06865)	inactive: -0.018
GTF3A (UniProt Q92664)	inactive: -0.005
H2AZ1 (UniProt P0C0S5)	inactive: -0.014
GSR (UniProt P00390)	inactive: -0.021
HEATR5B (UniProt Q9P2D3)	inactive: 0.015
HEXB (UniProt P07686)	inactive: -0.033
HAT1 (UniProt O14929)	inactive: -0.061
HDGFL2 (UniProt Q7Z4V5)	inactive: -0.058
GTF3C5 isoform 3 (UniProt Q9Y5Q8)	inactive: 0.056
GTF2E1 (UniProt P29083)	inactive: -0.047
H1FX (UniProt Q92522)	inactive: 0.102
GTF3C4 (UniProt Q9UKN8)	inactive: -0.001
HDHD2 (UniProt Q9H0R4)	inactive: -0.048

compound: COC(=O)N[C@@H](C)CNc1nccc(-c2cn(C(C)C)nc2-c2cc(Cl)cc(NS(C)(=O)=O)c2F)n1 [encorafenib]; assay: as above
Procedure, shortened: as §1

Target	log2 fold change
GYS1 (UniProt P13807)	inactive: 0.176
HBQ1 (UniProt P09105)	inactive: -0.007
GTF2A2 (UniProt P52657)	inactive: -0.022
HBZ (UniProt P02008)	inactive: -0.004
GTF2A1 (UniProt P52655)	inactive: -0.056
HBA1 (UniProt P69905)	inactive: -0.043
GSTP1 (UniProt P09211)	inactive: -0.007
GTF2E2 (UniProt P29084)	inactive: 0.145
HEATR3 (UniProt Q7Z4Q2)	inactive: -0.028
GUF1 (UniProt Q8N442)	inactive: -0.04
GYG1 (UniProt P46976)	inactive: 0.083
GTF2H3 (UniProt Q13889)	inactive: -0.073
HAX1 (UniProt O00165)	inactive: 0.045
HDDC2 (UniProt Q7Z4H3)	inactive: 0.014
HDAC1 (UniProt Q13547)	inactive: -0.046
GUK1 isoform 2 (UniProt Q16774)	inactive: -0.079
GSK3B isoform 2 (UniProt P49841)	inactive: -0.003
HECTD1 (UniProt Q9ULT8)	inactive: -0.154
HAUS4 (UniProt Q9H6D7)	inactive: 0.194
HDAC2 (UniProt Q92769)	inactive: -0.046

Target	log2 fold change
GUSB (UniProt P08236)	inactive: 0.128
H2AFX (UniProt P16104)	inactive: -0.013
GSTO1 (UniProt P78417)	inactive: 0.001
HDAC6 (UniProt Q9UBN7)	inactive: -0.135
HADHB (UniProt P55084)	inactive: 0.001
GSTM4 (UniProt Q03013)	inactive: -0.238
HEXA (UniProt P06865)	inactive: 0.003
GTF3A (UniProt Q92664)	inactive: -0.138
H2AZ1 (UniProt P0C0S5)	inactive: 0.107
GSR (UniProt P00390)	inactive: -0.02
HEATR5B (UniProt Q9P2D3)	inactive: 0.041
HEXB (UniProt P07686)	inactive: 0.01
HAT1 (UniProt O14929)	inactive: 0.064
HDGFL2 (UniProt Q7Z4V5)	inactive: -0.016
GTF3C5 isoform 3 (UniProt Q9Y5Q8)	inactive: 0.085
GTF2E1 (UniProt P29083)	inactive: 0.199
H1FX (UniProt Q92522)	inactive: 0.121
GTF3C4 (UniProt Q9UKN8)	inactive: 0.043
HDHD2 (UniProt Q9H0R4)	inactive: 0.016
